This is an account of results in patent US20040106173A1, “Bot1: target for antifungal agents” (The University of Miami, priority 2001, published 2004).

Chains of the proteins cited; added tags and fusions are not shown. Lines headed by an entry give the natural chain unless they say otherwise; changes in a name come on top.
UniProt P04386: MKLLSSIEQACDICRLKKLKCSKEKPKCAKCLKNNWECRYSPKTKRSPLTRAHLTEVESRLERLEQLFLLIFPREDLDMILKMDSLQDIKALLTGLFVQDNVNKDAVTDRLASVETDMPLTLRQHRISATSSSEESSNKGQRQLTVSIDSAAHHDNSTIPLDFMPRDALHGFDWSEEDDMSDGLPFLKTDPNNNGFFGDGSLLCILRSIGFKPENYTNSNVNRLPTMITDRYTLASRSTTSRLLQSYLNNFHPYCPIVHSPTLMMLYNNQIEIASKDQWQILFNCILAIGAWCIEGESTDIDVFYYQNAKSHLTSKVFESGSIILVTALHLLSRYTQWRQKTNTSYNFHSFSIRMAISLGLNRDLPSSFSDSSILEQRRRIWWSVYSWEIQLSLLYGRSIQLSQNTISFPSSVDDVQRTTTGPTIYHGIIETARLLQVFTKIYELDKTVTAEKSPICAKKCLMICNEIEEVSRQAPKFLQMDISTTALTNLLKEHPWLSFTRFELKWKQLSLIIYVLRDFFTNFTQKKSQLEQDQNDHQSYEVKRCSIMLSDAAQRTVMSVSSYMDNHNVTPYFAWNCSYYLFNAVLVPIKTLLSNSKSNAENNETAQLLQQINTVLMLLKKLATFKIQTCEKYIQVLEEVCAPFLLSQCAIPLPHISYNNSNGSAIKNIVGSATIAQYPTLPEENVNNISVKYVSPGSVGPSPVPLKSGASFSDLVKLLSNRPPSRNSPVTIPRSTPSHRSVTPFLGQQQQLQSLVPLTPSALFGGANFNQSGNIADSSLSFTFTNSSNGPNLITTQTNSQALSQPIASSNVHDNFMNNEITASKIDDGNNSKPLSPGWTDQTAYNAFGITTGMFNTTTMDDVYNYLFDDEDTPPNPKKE

No constants are given. Whether binding was seen depends on the method and setting. Some entries that bind do so weakly or less than the wild type. Where a sequence is shown, tags or fusion partners need not be part of it.

For experiment [1], the target named is T1, GAL4 activation domain fused to SNF4p (pSE1111, pACT-SNF4) (UniProt P12904).
T1 sequence (looked up): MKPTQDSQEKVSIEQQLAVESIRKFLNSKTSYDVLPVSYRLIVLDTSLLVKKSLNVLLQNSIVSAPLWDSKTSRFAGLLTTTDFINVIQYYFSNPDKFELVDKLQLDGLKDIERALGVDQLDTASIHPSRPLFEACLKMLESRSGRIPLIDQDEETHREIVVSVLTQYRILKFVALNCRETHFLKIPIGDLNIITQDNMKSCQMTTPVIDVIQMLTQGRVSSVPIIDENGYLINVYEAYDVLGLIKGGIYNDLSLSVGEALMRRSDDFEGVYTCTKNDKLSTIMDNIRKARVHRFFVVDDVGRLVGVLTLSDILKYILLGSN
In words: LACZ-GAL4 reporter in strain BY3161, control of the three-hybrid test.

Experiment [2] deals with T1, GAL4 activation domain fused to SNF4p (pSE1111, pACT-SNF4). Put plainly: yeast two-hybrid, positive control.

“GAL4 binding domain fused to SNF1p (pSE1112, pAS1-SNF1) (from UniProt P04386 1-147; P06782 1-633)”: the binding entry in experiment [1] and in experiment [2] was “binds” each time.
